Results reported in US20110046079A1, “Use of Proton Pump Inhibitors as Drug Delivery Adjuvants” (priority 2008, published 2011).
Values joined by “and” are separate entries in the source; they are usually repeats but may differ in a detail not shown here. Identical values can stand only once. “Also recorded” adds a separate entry of the source. At least one compound was matched to its structure with a doubt left. Where no end group is shown, it is not given here.

Legend:
[1] = test system: rat gastric corpus mucosa; experiment: Transepithelial flux of 14C-labeled probes (mannitol, sucrose, polyethylene glycol) before and after PPI; conditions: 200 μM omeprazole
Description: In each experiment, one adult male Sprague Dawley rat was sacrificed by decapitation. The stomach was removed, flushed, and stripped of its outer serosal membrane, while being frequently moistened with chilled, unbuffered saline. Two pieces of corpus mucosa were mounted in modified Ussing chambers, with exposed tissue surface area of 1.13 cm^2. Chambers were connected to gas-lift reservoirs, with a fluid volume of 17 mL per hemichamber. The mucosal hemichamber was filled with unbuffered saline (with 17 mM glucose) and kept aerated and perfused with 100% O2 at 37° C. […] Water-jacketed reservoirs maintained chamber saline at 37° C.
KRB was adjusted to a pH of 7.3-7.4.
Unbuffered saline was gassed with 100% O2 and was used to bathe the mucosal side of the gastric mucosa.
Approximately 30 minutes after tissues were mounted in Ussing chambers, dibutyrl cyclic AMP (dB-cAMP) (Sigma, St. Louis, Mo.) was added to the serosal sides of both chambers to a concentration of 1 mM in order to stimulate acid output by the tissue.
Three experiments were performed with each PPI, examining gastric permeability to ^14C-mannitol.
Three experiments were performed at each omeprazole concentration.

[2] = test system: rat gastric corpus mucosa; experiment: Transepithelial electrical resistance and short circuit current in Ussing chambers; conditions: 200 μM omeprazole
Description: (§1) Water-jacketed reservoirs maintained chamber saline at 37° C.
(§2) In order to confirm stimulation of acid secretion by secretagogue addition and to verify the efficacy of the PPI, mucosal fluid compartment pH was recorded at intervals throughout the experiment with a manual electrode (Denver Instruments, Denver, Colo.). Ag/AgCl voltage and current electrodes were used to measure PD (potential difference) and ISC (short circuit current) approximately every five minutes for the duration of the experiment, as previously described (Hameed et al. (2004) Dig. Dis. Sci., 49:1381-1386), using two single-channel current/voltage clamps (McGrath Research and Technology). Ohm's Law was used to calculate transepithelial electrical resistance across the tissue.
Electrical parameters were monitored throughout the duration of the experiment. Tissues were maintained under open circuit conditions. […] Tissue voltage (potential difference), short circuit current, and transepithelial resistance were recorded approximately every five minutes for the duration of the experiment, by passing a one-second current pulse equal to biological current to bring the potential difference to zero using a current/voltage clamp (McGrath Research & Technology). Transepithelial resistance was calculated by dividing open circuit potential difference by short circuit current (Ohm's law).

[3] = test system: rat gastric corpus mucosa; experiment: Acid secretion (mucosal fluid pH) of dB-cAMP stimulated tissue in Ussing chambers; conditions: ex vivo addition; 200 μM omeprazole, 200 μM lansoprazole, 100 μM esomeprazole
Description: as §1, §2
Mucosal and serosal saline pH measurements were taken at approximately five minute intervals using a manual electrode (Denver Instruments) to ensure that the tissue was secreting acid. Mucosal pH readings were also taken before and after the addition of omeprazole to document the action of omeprazole on inhibiting acid secretion. Tissue viability was confirmed at the end of each experiment by tissue exposure to 10 mM amiloride in the mucosal fluid compartment in order to inhibit short circuit current.

rat gastric corpus = format: in vitro ADME
Description: The numbers provided hereinbelow (Table 6) represent the transepithelial diffusion (mucosal to serosal) of radiolabeled bradykinin. […] It includes only intact bradykinin.
Two data sets from two experiments are provided. These are bradykinin fluxes in picomoles/min/cm^2. One tissue was treated only with DMSO (vehicle control). […] The other tissue (paired pieces of rat gastric corpus) is treated with omeprazole in DMSO. […] The bradykinin leak in controls is likely due to ‘experimental artifact’—in this case mechanical damage of the tissue in handling plus incubation. The increase in flux (leak) of bradykinin seen with DMSO may not be a function of the DMSO at all, but instead simply be a result of tissue ‘breakdown’ over time due to the tissue's very finite lifespan once out of the animal.

| Compound | effect on transepithelial D-mannitol leak [1] | time to increase in mannitol flux after addition of the PPI [1] [min] | effect on short circuit current [2] | effect on transepithelial electrical resistance [2] | effect on acid secretion (rate of mucosal acidification) [3] | % increase with omeprazole (rat gastric corpus; individual experiments) | leak with omeprazole over control (rat gastric corpus; omeprazole-treated vs control) | % Increase with DMSO (rat gastric corpus; vehicle control tissue, individual experiments) |
| --- | --- | --- | --- | --- | --- | --- | --- | --- |
| COc1ccc2[nH]c([S+]([O-])Cc3ncc(C)c(OC)c3C)nc2c1 (centres unmarked) [omeprazole] | dramatic increase | ≤ 15 | modest stimulation; also recorded: slight stimulation | small, but significant, decrease | inhibited acid secretion |  |  |  |
| RPPGFSPFR [Bradykinin] |  |  |  |  |  | 177% and 64% | increased leak | 43% and 21% |
